# The other results are listed elsewhere or left out. Single values of this set are uncertain.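 Many melting curves are irregular; where none melted, Tm was taken as 64 °C.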
# Chains of the proteins cited; added tags and fusions are not shown. Lines headed by an entry give the natural chain unless they say otherwise; changes in a name come on top.
# UniProt Q9Y6D6: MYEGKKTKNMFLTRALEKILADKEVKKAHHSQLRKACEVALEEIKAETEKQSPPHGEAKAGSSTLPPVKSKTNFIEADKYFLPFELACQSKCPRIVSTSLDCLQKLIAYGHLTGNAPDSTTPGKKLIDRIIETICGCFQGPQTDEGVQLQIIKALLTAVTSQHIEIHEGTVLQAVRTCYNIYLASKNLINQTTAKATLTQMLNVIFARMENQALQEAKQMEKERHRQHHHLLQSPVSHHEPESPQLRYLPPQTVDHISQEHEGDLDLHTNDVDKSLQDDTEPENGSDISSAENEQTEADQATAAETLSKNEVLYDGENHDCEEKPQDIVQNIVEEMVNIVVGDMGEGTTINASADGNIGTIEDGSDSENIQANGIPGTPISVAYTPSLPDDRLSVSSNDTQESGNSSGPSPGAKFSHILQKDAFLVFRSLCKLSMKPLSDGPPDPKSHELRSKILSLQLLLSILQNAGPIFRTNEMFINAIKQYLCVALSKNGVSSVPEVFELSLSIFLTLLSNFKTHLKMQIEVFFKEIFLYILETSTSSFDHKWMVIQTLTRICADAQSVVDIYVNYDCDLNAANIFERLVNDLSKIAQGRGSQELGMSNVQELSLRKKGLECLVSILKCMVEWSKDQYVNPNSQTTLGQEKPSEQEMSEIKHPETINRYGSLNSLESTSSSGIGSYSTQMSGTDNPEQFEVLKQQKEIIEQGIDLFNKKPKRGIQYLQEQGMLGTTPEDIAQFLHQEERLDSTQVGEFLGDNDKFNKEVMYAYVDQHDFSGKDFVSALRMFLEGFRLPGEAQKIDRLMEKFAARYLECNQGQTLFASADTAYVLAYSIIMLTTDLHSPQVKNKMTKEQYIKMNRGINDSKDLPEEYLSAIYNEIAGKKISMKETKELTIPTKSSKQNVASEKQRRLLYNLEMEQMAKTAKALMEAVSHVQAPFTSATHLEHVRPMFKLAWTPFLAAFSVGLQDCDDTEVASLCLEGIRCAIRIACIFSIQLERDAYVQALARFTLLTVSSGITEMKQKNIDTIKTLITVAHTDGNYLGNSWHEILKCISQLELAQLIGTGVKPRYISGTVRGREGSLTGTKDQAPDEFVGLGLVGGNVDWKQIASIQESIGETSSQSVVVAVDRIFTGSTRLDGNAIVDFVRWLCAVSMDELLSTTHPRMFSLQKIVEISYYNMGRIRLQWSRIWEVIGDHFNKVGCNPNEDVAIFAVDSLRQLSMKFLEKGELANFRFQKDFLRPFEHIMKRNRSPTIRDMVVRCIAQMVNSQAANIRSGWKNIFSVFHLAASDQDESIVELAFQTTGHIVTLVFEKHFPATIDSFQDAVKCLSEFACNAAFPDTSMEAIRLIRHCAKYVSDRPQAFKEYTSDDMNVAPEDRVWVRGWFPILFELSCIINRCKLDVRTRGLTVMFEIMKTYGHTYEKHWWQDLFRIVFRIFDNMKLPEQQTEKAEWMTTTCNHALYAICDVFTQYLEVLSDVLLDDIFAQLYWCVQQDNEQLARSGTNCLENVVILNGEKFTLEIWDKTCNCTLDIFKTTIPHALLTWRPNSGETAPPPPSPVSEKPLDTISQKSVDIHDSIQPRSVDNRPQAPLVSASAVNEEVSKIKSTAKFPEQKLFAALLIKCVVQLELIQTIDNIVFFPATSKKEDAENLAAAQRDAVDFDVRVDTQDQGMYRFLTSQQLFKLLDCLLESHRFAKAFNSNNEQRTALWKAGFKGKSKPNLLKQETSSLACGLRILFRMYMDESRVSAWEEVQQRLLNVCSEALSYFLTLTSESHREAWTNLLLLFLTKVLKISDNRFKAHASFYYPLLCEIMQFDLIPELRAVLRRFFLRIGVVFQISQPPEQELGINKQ
# UniProt Q9Y343: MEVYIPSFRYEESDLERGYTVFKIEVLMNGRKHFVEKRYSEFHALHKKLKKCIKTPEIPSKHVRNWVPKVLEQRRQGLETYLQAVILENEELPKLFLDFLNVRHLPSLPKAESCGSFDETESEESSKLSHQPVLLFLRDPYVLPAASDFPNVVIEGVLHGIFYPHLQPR
# UniProt Q9Y2X3: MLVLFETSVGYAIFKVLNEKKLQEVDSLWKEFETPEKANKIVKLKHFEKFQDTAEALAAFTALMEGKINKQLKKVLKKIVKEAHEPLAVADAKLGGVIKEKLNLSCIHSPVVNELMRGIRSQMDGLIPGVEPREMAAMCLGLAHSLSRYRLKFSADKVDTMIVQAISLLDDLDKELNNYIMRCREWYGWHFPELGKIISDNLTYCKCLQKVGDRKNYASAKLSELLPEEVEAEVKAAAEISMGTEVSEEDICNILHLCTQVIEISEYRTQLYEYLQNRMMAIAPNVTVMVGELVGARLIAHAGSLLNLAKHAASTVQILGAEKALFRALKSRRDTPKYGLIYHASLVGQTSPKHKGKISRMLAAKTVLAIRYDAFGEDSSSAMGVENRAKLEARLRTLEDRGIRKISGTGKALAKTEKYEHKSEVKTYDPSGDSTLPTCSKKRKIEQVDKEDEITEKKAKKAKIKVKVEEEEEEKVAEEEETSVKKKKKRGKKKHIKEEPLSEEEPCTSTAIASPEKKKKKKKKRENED
# UniProt Q9Y5Q9: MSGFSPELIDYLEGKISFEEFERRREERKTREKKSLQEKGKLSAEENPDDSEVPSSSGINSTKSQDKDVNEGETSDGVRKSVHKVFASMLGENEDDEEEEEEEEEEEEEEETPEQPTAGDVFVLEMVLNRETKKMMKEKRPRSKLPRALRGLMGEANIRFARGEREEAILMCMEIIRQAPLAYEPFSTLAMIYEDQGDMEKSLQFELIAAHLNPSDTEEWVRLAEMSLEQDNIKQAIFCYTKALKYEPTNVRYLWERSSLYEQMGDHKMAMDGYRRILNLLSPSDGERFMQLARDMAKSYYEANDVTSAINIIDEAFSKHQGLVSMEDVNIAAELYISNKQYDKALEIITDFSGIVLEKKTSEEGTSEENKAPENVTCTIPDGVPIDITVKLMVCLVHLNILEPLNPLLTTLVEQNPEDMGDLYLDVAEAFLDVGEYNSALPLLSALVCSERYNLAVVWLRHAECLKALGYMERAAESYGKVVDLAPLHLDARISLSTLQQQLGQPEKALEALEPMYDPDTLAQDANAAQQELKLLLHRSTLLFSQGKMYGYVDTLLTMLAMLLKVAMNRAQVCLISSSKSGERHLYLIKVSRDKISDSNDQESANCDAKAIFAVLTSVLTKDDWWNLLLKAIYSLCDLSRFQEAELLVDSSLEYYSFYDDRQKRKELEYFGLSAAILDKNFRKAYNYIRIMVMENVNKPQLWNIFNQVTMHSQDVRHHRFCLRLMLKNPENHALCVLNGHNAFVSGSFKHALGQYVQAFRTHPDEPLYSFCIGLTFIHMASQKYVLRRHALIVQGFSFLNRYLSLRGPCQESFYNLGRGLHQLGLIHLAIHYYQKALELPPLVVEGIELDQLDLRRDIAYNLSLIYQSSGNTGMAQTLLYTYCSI
# UniProt Q9Y383: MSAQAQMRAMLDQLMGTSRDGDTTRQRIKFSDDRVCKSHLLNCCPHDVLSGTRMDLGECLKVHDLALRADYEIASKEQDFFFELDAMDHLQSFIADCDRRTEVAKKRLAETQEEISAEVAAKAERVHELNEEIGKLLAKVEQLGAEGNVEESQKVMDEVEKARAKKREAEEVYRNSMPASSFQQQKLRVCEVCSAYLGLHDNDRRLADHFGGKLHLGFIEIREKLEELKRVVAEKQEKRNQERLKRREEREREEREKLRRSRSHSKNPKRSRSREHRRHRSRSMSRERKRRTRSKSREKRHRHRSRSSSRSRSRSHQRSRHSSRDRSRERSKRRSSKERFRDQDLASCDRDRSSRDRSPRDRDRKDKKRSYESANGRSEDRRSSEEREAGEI
# UniProt Q9Y320, whole entry: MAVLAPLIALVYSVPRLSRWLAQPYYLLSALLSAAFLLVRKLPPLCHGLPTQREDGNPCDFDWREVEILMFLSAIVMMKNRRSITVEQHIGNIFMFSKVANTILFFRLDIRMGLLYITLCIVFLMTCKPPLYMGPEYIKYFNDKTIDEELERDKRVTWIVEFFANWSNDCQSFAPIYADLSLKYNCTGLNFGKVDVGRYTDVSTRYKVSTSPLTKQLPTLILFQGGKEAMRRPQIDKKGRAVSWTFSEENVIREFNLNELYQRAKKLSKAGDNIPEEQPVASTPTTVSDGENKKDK
# UniProt Q9Y535: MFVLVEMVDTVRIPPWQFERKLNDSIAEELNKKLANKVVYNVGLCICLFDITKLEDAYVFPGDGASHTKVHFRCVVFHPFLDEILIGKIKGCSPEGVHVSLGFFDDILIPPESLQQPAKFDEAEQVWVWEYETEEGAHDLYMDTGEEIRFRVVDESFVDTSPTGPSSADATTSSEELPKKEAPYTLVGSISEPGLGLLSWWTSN
# UniProt Q9Y3D6: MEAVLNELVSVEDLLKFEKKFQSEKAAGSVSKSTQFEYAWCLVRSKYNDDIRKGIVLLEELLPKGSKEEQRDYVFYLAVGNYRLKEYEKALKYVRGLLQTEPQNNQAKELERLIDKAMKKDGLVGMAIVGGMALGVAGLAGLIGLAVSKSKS
# UniProt Q9Y2L5: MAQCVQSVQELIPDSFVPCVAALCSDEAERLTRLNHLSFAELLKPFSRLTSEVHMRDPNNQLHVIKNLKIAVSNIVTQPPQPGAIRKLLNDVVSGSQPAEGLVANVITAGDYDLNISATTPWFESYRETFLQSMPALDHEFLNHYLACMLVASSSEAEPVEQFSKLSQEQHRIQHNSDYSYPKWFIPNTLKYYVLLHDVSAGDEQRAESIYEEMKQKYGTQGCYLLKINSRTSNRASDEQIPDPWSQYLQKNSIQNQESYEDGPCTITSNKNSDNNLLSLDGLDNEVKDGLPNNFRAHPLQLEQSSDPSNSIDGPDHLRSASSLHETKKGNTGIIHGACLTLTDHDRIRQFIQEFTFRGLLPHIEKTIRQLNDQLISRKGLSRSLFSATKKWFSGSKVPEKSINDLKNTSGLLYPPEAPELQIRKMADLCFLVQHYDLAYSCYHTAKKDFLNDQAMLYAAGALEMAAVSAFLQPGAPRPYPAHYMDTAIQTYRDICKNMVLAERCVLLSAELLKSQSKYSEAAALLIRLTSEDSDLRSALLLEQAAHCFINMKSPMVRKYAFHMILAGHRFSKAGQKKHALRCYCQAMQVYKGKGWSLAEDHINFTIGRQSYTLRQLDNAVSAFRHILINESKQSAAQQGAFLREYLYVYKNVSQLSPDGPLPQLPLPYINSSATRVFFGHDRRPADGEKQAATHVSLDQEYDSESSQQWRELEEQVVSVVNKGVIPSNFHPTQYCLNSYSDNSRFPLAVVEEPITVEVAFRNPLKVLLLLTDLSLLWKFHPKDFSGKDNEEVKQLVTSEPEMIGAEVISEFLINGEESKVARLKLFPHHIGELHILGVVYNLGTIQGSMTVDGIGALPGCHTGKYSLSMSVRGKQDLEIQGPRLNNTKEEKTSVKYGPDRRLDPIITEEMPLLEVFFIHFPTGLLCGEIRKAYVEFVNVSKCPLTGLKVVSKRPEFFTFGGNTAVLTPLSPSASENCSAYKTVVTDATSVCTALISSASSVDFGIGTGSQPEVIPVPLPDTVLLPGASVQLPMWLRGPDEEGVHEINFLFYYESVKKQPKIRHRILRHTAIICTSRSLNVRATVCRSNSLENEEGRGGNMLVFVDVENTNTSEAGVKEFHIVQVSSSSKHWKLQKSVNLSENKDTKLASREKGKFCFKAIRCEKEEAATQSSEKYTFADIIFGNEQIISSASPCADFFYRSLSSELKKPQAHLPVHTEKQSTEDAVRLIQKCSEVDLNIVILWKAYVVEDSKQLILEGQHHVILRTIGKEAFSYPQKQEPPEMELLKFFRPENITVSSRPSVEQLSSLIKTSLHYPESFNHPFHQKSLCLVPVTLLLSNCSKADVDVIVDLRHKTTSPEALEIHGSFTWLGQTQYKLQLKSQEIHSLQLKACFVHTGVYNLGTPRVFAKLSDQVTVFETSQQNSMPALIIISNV
# UniProt Q9Y375: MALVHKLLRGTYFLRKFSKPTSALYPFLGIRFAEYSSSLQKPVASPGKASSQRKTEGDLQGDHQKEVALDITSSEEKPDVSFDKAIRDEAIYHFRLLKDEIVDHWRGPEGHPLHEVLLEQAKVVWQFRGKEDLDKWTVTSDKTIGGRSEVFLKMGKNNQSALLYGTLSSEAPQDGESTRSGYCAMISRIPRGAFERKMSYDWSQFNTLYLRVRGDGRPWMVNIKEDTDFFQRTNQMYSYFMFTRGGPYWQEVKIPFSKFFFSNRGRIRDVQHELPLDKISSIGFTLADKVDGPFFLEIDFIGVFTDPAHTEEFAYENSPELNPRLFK
# UniProt Q9Y315: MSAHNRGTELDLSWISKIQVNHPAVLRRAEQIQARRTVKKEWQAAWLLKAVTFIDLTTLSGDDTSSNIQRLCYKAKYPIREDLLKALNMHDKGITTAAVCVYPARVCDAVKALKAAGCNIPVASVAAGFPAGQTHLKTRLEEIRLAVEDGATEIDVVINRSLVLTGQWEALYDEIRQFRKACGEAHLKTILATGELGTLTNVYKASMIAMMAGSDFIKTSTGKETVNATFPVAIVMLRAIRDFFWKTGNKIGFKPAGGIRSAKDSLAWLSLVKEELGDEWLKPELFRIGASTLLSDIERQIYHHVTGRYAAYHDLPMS
# Compound: CCc1cnccc1C(=O)Nc1cc2c(cc1F)NC(=O)CC2
# Test: melting temperature shift (DMSO Tm minus MBE1-treated Tm) in cellular thermal proteome profiling; higher = less thermal stabilization by MBE1 (negative = stabilized by MBE1)
# Details: A375
Target,melting temperature shift (MBE1 concentration: 100 nM) [°C],melting temperature shift (MBE1 concentration: 1 uM) [°C]
UniProt Q9Y6Q3,0.531,0
PPIL1 (UniProt Q9Y3C6),-0.573,0.0427
NOC2L (UniProt Q9Y3T9),-0.532,-0.833
UniProt Q9Y2Q0,-1.83,1.31
TLN2 (UniProt Q9Y4G6),-0.00611,-0.256
UniProt Q9Y2R4,-0.218,0.00641
UCHL5 (UniProt Q9Y5K5),-0.616,-0.292
USP16 (UniProt Q9Y5T5),-0.781,-0.115
ARFGEF1 (UniProt Q9Y6D6),0.727,-0.189
UniProt Q9Y5S1,-0.899,0.483
UniProt Q9Y343,-1.85,-1.36
PLXND1 (UniProt Q9Y4D7),1.89,0.989
PSAT1 (UniProt Q9Y617),-0.659,-0.617
UniProt Q9Y4F3,-1.52,0.259
GSTK1 (UniProt Q9Y2Q3),-0.0122,0.403
UniProt Q9Y2I8,-4.08,0.159
MAD1L1 (UniProt Q9Y6D9),0.0705,-0.179
IRS2 (UniProt Q9Y4H2),-0.842,-0.338
RABGAP1 (UniProt Q9Y3P9),0.427,0.488
NOP58 (UniProt Q9Y2X3),-0.758,0.396
CEP170B (UniProt Q9Y4F5),-0.692,-0.8
MEMO1 (UniProt Q9Y316),-1.11,0.134
GTF3C3 (UniProt Q9Y5Q9),0.122,-0.295
UniProt Q9Y5W8,-2.45,-0.617

Target,melting temperature shift (MBE1 concentration: 100 nM) [°C],melting temperature shift (MBE1 concentration: 1 uM) [°C]
UniProt Q9Y2K7,-0.141,-0.0047
TRAF6 (UniProt Q9Y4K3),-0.22,0.799
UBE2J1 (UniProt Q9Y385),0.775,-0.287
RRP7A (UniProt Q9Y3A4),-0.301,-0.08
UniProt Q9Y5W9,0.849,0.421
RBM8A (UniProt Q9Y5S9),-0.495,-0.537
RNF114 (UniProt Q9Y508),0.238,1.96
RBM19 (UniProt Q9Y4C8),-0.128,-0.433
COPG1 (UniProt Q9Y678),-0.658,0.0672
CHTOP (UniProt Q9Y3Y2),0.916,-2.75
EPN1 (UniProt Q9Y6I3),0.0488,0.0916
UniProt Q9Y388,-0.598,-0.922
USP15 (UniProt Q9Y4E8),0.311,0.0488
COL4A3BP (UniProt Q9Y5P4),0.366,0.0916
DIS3 (UniProt Q9Y2L1),-0.442,-0.0705
UniProt Q9Y4X4,-3.84,-0.0977
ACOT9 (UniProt Q9Y305),-0.241,-0.0335
WDR7 (UniProt Q9Y4E6),0.995,1.68
UniProt Q9Y6E0,0.0134,-0.268
SH3GLB1 (UniProt Q9Y371),-0.221,-0.141
LSM2 (UniProt Q9Y333),-5.27,-6.21
UniProt Q9Y383,-0.708,-0.83
SNX9 (UniProt Q9Y5X1),0.586,-0.177
FHOD1 (UniProt Q9Y613),-0.685,-0.487

# Random excerpt: five entries already listed, in no set order.
Target,melting temperature shift (MBE1 concentration: 100 nM) [°C],melting temperature shift (MBE1 concentration: 1 uM) [°C]
COPG1 (UniProt Q9Y678),-0.658,0.0672
UniProt Q9Y388,-0.598,-0.922
EPN1 (UniProt Q9Y6I3),0.0488,0.0916
DIS3 (UniProt Q9Y2L1),-0.442,-0.0705
RNF114 (UniProt Q9Y508),0.238,1.96

# Following part.

Target,melting temperature shift (MBE1 concentration: 100 nM) [°C],melting temperature shift (MBE1 concentration: 1 uM) [°C]
UniProt Q9Y6C2,-0.461,0.617
COG6 (UniProt Q9Y2V7),-0.259,-0.456
MRPS28 (UniProt Q9Y2Q9),1.26,-0.885
HECTD4 (UniProt Q9Y4D8),2.94,2.68
TMX2 (UniProt Q9Y320),-0.49,-0.577
WASF2 (UniProt Q9Y6W5),1.06,0.0611
UniProt Q9Y625,-2.46,2.22
FKBP7 (UniProt Q9Y680),0.803,-2.38
SLC4A7 (UniProt Q9Y6M7),-0.865,0.852
UniProt Q9Y666,0.275,0.721
AP4B1 (UniProt Q9Y6B7),0.0047,-0.198
UniProt Q9Y6X4,0.0201,1.43
UniProt Q9Y3D5,-0.812,-0.503
UniProt Q9Y6X5,-6.72,2.9
SAMHD1 (UniProt Q9Y3Z3),-1.53,-0.335
UniProt Q9Y5W7,0.128,-0.415
MRPS18B (UniProt Q9Y676),-0.673,0.348
GIT1 (UniProt Q9Y2X7),-0.96,-1.01
TIMM13 (UniProt Q9Y5L4),-4,-0.272
FAM96B (UniProt Q9Y3D0),-0.847,-0.108
COQ6 (UniProt Q9Y2Z9),-1.22,0.318
UniProt Q9Y2W6,0.287,0.226
DYNC1LI1 (UniProt Q9Y6G9),-0.116,0.843
HEBP2 (UniProt Q9Y5Z4),-0.101,0.00611

Target,melting temperature shift (MBE1 concentration: 100 nM) [°C],melting temperature shift (MBE1 concentration: 1 uM) [°C]
UniProt Q9Y3D7,-1.82,-0.389
FBXO7 (UniProt Q9Y3I1),-0.841,-1.01
RBM7 (UniProt Q9Y580),-0.851,0.409
POLDIP2 (UniProt Q9Y2S7),1.21,0.647
UniProt Q9Y3L3,0.288,0.201
DHRS7 (UniProt Q9Y394),-1.1,0.319
UniProt Q9Y4F9,-0.923,-0.975
UniProt Q9Y535,-1.22,-0.863
TCAF1 (UniProt Q9Y4C2),-0.542,-0.39
FAM21C (UniProt Q9Y4E1),1.17,-0.513
AAR2 (UniProt Q9Y312),-1.94,-0.169
HBS1L (UniProt Q9Y450),0.379,0.403
KCTD3 (UniProt Q9Y597),-1.82,-3.79
ALG5 (UniProt Q9Y673),-0.845,-0.157
FIS1 (UniProt Q9Y3D6),-3.24,0.0733
UniProt Q9Y6A1,-0.878,0.122
LAS1L (UniProt Q9Y4W2),-0.0256,-0.109
BZW2 (UniProt Q9Y6E2),0.281,0.244
FLVCR1 (UniProt Q9Y5Y0),-1.41,-0.272
HYOU1 (UniProt Q9Y4L1),-1.21,0.53
TRAPPC8 (UniProt Q9Y2L5),0.837,0.592
TMED5 (UniProt Q9Y3A6),-0.221,-0.268
FARP1 (UniProt Q9Y4F1),0.458,0.769
MED16 (UniProt Q9Y2X0),-0.476,0.22

Target,melting temperature shift (MBE1 concentration: 100 nM) [°C],melting temperature shift (MBE1 concentration: 1 uM) [°C]
SEC23IP (UniProt Q9Y6Y8),0.276,0.0244
NUMBL (UniProt Q9Y6R0),-0.42,1.36
TELO2 (UniProt Q9Y4R8),-0.645,-0.767
CAPN7 (UniProt Q9Y6W3),0.171,0.0794
CHMP3 (UniProt Q9Y3E7),-0.215,0.503
NDUFAF1 (UniProt Q9Y375),-1.39,0.577
UniProt Q9Y2U5,-0.256,-0.29
ZNF330 (UniProt Q9Y3S2),-0.766,2.03
NUB1 (UniProt Q9Y5A7),-0.801,0.173
UniProt Q9Y2T7,0.537,-2.12
SBDS (UniProt Q9Y3A5),0.708,0.421
SPIN1 (UniProt Q9Y657),-0.476,0.154
COMMD10 (UniProt Q9Y6G5),-1.43,0.44
GMPPB (UniProt Q9Y5P6),-0.887,0.437
ATG4B (UniProt Q9Y4P1),-0.226,-0.259
MRPS7 (UniProt Q9Y2R9),-0.11,-0.244
TRAPPC1 (UniProt Q9Y5R8),-0.812,-0.391
DERA (UniProt Q9Y315),-1.28,-0.614
DDX49 (UniProt Q9Y6V7),-0.678,0.275
MTO1 (UniProt Q9Y2Z2),0.339,-3.75
PPME1 (UniProt Q9Y570),-0.833,-0.00611
UniProt Q9Y4K1,-0.348,-0.528
MRPL11 (UniProt Q9Y3B7),-2.37,0.0448
